Experimental findings from paper PMC12313917 are described below.

By UniProt entry, the sequences of proteins in these tests, tags left out.
UniProt P53994: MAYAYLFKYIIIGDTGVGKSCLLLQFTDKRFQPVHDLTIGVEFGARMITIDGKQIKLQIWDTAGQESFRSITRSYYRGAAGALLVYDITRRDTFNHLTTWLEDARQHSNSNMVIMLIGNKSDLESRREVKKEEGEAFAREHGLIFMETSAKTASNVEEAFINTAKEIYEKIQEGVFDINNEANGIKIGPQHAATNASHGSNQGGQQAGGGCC

No constants are given. Whether binding was seen depends on the method and setting. In cells and extracts the contact can be indirect. Some entries that bind do so weakly or less than the wild type. Where a sequence is shown, tags or fusion partners need not be part of it.

One experiment concerns the target HA-RAB2a (UniProt P53994). Kind of experiment: co-IP; co-expression in WT E14 mESCs for 48 hrs; IP with cross-linked anti-HA magnetic beads against mouse IgG control, over-night; WB with anti-FLAG and anti-HA.
Another experiment concerns the target T1, STMN1-HA (mouse) (UniProt P54227).
T1 sequence: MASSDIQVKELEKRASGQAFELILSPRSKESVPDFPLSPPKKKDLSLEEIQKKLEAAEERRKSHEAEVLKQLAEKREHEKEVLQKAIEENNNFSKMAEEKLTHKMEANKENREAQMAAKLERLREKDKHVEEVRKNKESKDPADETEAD
Described as above.

B1: METTL9-CatD-FLAG (enzyme, UniProt Q9EPL4 19-318)
chain: RRMWTLRSPLSRSLYVNMTSGPGGPAAAAGGGKDTHQWYVCNREKLCESLQSVFVQSYLDQGTQIFLNNSIEKSGWLFIQLYHSFVSSVFSLFMSRTSINGLLGRGSMFVFSPDQFQRLLRINPDWKTHRLLKLRAGDGEVTKIMSPHFEEIYATELSETMIWQLQKKKYRVLGINEWQNTGFQYDVISCLNLLDRCDQPLTLLKDIRSVLEPTQGRVILALVLPFHPYVENVGGKWEKPSEILEIKGQNWEEQVNSLPEVFRKAGFVVEAFTRLPYLCEGDMYNDYYVLDDAVFVLRPV
For the molecule B1, the binding result in the experiment with HA-RAB2a and with STMN1-HA (mouse) was “binds” each time.
